Measurements reported in patent US6368785B1 (Global Hemostasis Institute MGR AB, priority 1997, dated 2002).

Tested on: coagulation factor VIII
Assay: stability of factor VIII clotting activity in stored anti-coagulated blood
Format: biochemical
Details: blood stored at room temperature

O=C(O)CC(O)(CC(=O)O)C(=O)O [citrate, Tri-sodium citrate]
Factor VIII clotting activity, % of initial activity (at 48 hours): 55% | Factor VIII clotting activity, % of initial activity (first 5 hours): 75%

Where a name gives a salt, the structure may show the parent alone.
